No constants are given. Whether binding was seen depends on the method and setting. Some entries that bind do so weakly or less than the wild type. Tags and fused reporters may be left off the sequences shown.
T1: FL CLF (CURLY LEAF), yeast two-hybrid fusion (Arabidopsis thaliana) (UniProt P93831)
T1 sequence: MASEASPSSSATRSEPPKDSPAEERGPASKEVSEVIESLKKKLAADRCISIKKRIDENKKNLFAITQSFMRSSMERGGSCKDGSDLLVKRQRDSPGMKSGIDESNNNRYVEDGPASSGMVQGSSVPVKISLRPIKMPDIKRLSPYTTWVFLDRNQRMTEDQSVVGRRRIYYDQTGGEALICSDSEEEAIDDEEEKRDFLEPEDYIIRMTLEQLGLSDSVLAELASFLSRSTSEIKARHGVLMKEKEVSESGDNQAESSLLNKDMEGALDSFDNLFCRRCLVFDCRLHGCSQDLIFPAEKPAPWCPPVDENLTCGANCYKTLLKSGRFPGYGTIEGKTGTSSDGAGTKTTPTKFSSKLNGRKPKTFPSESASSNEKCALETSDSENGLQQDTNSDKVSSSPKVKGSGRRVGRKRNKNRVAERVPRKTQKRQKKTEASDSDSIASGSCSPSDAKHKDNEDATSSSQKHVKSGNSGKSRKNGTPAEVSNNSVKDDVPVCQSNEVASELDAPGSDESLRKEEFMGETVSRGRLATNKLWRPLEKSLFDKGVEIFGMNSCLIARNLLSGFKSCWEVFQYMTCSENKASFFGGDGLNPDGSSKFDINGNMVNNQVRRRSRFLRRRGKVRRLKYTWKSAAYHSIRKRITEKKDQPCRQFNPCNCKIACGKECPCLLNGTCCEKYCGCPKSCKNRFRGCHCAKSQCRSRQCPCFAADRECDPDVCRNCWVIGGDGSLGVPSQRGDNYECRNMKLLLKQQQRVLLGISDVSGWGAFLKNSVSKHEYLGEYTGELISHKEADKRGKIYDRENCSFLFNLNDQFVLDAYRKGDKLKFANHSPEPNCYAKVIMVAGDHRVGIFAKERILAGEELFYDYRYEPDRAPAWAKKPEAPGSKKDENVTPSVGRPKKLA


Key:
[1] = biological target: full-length (FL) ULT1, yeast two-hybrid fusion (Arabidopsis thaliana) (UniProt Q8GZA8); experiment: two-hybrid
[2] = biological target: T1, FL CLF (CURLY LEAF), yeast two-hybrid fusion (Arabidopsis thaliana); experiment: two-hybrid

binding [1] | binding [2] | Binder
binds | binds | full-length (FL) ULT1, yeast two-hybrid fusion (protein, UniProt Q8GZA8 1-237) MANNEGEMQCGSMLFKQEELQEMSGVNVGGDYVEVMCGCTSHRYGDAVARLRVFPTGDLEITCECTPGCDEDKLTPAAFEKHSGRETARKWKNNVWVIIGGEKVPLSKTVLLKYYNESSKKCSRSNRSQGAKVCHRDEFVGCNDCGKERRFRLRSRDECRLHHNAMGDPNWKCSDFPYDKITCEEEEERGSRKVYRGCTRSPSCKGCTSCVCFGCELCRFSECTCQTCVDFTSNVKA
– | binds | ULT1_(1-193), yeast two-hybrid fusion (domain or fragment, UniProt Q8GZA8 1-193) MANNEGEMQCGSMLFKQEELQEMSGVNVGGDYVEVMCGCTSHRYGDAVARLRVFPTGDLEITCECTPGCDEDKLTPAAFEKHSGRETARKWKNNVWVIIGGEKVPLSKTVLLKYYNESSKKCSRSNRSQGAKVCHRDEFVGCNDCGKERRFRLRSRDECRLHHNAMGDPNWKCSDFPYDKITCEEEEERGSRK
